Results reported in PubChem BioAssay AID2685 (National Center for Advancing Translational Sciences (NCATS), 2010).
This is one part of the list. These are further read-outs of the screen, such as a control signal, another cell line or another target. No call is given for them. The list favours compounds with an active or inconclusive main result. Potencies come from curve fits of mixed quality, noted in brackets.

Assay: qHTS Assay for Lipid Storage Modulators in Drosophila S3 Cells;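 for cell number change: cells counted by Cell Tracker Red CMTPX staining in the red channel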
Settings: BODIPY lipid droplet fluorescence, 18-24 h; for cell number change: measured here: cell count max response, cells fed with added oleic acid
Outline: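 Laser-scanning cytometry quantifies lipid droplet accumulation (500–530 nm total intensity; droplet/cell object ratio) in oleic acid-fed (400 uM added) Drosophila S3 cells treated with a concentration series. 20 uM Triacsin C defined 100% inhibition.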

[1] = measured here: lipid fluorescence (Fed channel) AC50, cells fed with added oleic acid
[2] = measured here: cell number channel AC50, cells fed with added oleic acid

SMILES	cell number change [%]	AC50 [1]	AC50 [2]
NC(N)=NCCCC(NC(=O)c1ccccc1)C(=O)Nc1ccc2ccccc2c1 (configuration not stated)	-10.3	820 nM [rising, full curve, poor fit]	
COc1ccccc1-c1cc(C(=O)NCc2ccccc2)no1	-0.153	4.61 nM [falling, full curve, poor fit]	
N#CCCN(C(=O)COC(=O)Cc1ccc(Br)cc1)c1ccccc1		366 nM [rising, full curve]	326 nM [rising, full curve]
O=C(c1ccccc1F)N1CCN(Cc2nc3sc4c(c3c(=O)[nH]2)CCCC4)CC1	7.5	82 nM [rising, partial curve, poor fit]	
COc1ccc(F)cc1S(=O)(=O)N1CCC2(CC1)OCCN2S(=O)(=O)c1ccccc1		517 nM [rising, full curve, poor fit]	
CC(=O)N/N=C/c1ccccc1OCCOc1cccc(C)c1		651 nM [rising, partial curve, poor fit]	
O=C(O)Cc1sc(N/N=C\c2ccncc2)nc1-c1ccccc1	-26.6	5.17 nM [falling, full curve, poor fit]	
Cn1c(=O)c2c(nc(Sc3ncnn3CC(=O)N3CCOCC3)n2C)n(C)c1=O			651 nM [falling, single point]
O=C(CCO)c1ccc(O)cc1	-17.7		
CCNC(=O)NC(=O)CSc1nc2ccccc2n1CC(C)C	-14.4	580 nM [falling, full curve]	
CN(C(=O)COC(=O)c1c[nH]c(=O)[nH]c1=O)C1CCCCC1	7.81	5.8 nM [falling, full curve, poor fit]	
CCOC(=O)Nc1ccc2c(CN3CCN(S(=O)(=O)c4ccccc4F)CC3)cc(=O)oc2c1			820 nM [rising, full curve, poor fit]
CN(C(=O)c1cnc2n(c1=O)CCS2)C1CCCCC1	6.64	29100 nM [rising, single point]	
O=S(=O)(NCc1nnc2ccccn12)c1ccc(F)cc1	-2		
O=Cc1ccc(OCC(=O)NC(=O)NC2CCCCC2)cc1	8.07	2310 nM [falling, partial curve]	
Cc1cccc(C(=O)OCC(=O)N2CCCC2=O)c1[N+](=O)[O-]	-44.7	1840 nM [rising, partial curve]	10300 nM [falling, partial curve]
O=S(=O)(c1ccc(Cl)cc1)n1ccc2cccnc21	-17.6	20600 nM [falling, single point]	
CCc1nnc(NC(=O)CSc2nccn2-c2cc(C)cc(C)c2)s1	-62.3	29100 nM [falling, single point]	29100 nM [falling, single point]
CN(C)S(=O)(=O)c1cccc(NC(=S)Nc2ccc(Cl)cc2Cl)c1	64		25900 nM [rising, partial curve, poor fit]
CCC1(C)Cc2ccccc2-c2c1c(=O)n(Cc1ccccc1)c1nnnn21 (configuration not stated)	-1.53		

SMILES	cell number change [%]	AC50 [1]	AC50 [2]
O=[N+]([O-])c1ccc(O)c(/C=N/Nc2nn[nH]n2)c1	-18.5	20600 nM [falling, single point]	
CCOc1ccc(C2C(C#N)=C(N)Oc3cc(O)ccc32)cc1OCC (configuration not stated)	-8.76		
Cc1cc(C)n(CCc2nc(-c3cc4ccccc4o3)cs2)n1	-27.1	23100 nM [falling, single point]	
O=C1C(Cc2c[nH]c3ccccc23)NC(=S)N1C1CCCCC1 (configuration not stated)	-58.1		29100 nM [falling, single point]
N#C/C(=C\c1cccnc1)C(=O)Nc1cccc2ccccc12	-18	6510 nM [falling, partial curve]	
c1ccc(CN2CCN(c3nc(-c4ccccn4)nc4ccccc34)CC2)cc1	-18.6	92 nM [rising, full curve, poor fit]	
Cc1ccccc1OCC(=O)N1N=C(C(F)(F)F)CC1(O)C(C)(C)C (configuration not stated)	-66.8	10300 nM [falling, partial curve]	9200 nM [falling, partial curve]
CN(C)c1ccc(NS(=O)(=O)c2cccc(Cl)c2)cc1	1.63	164 nM [falling, full curve, poor fit]	1840 nM [rising, partial curve]
CCCOc1ccc(C(=O)Nc2ccc(C)cc2[N+](=O)[O-])cc1	-0.287	5.8 nM [falling, full curve, poor fit]	
CCN(CC)C(=O)c1[nH]cnc1C(=O)Nc1ccccc1	-12.5	82 nM [rising, full curve]	
Cc1nnc(-c2cccc(Br)c2)c2cn(-c3ccccc3Cl)nc12	22.3		
COc1ccc([C@@H]2[C@@H]3C(=O)N(C(C)(C)C)C(=O)[C@@H]3[C@]3(C)C(=O)N(c4cccc(Cl)c4)C(=O)N23)cc1	0.0209	11600 nM [rising, partial curve]	
Cn1c(=O)[nH]c(=O)c2c1nc(SCCO)n2CC(O)COc1ccccc1 (configuration not stated)	6.32		
COc1cccc(C2C(C#N)=C(N)Oc3cc(N)ccc32)c1OC (configuration not stated)	-12.3	1160 nM [rising, full curve]	
O=C(NCC(=O)N1CCOCC1)c1ccccc1	-5.46	29100 nM [falling, single point]	
O=C1/C(=C/c2ccccc2)Oc2cc(OC(=O)N3CCOCC3)ccc21	24.4	2310 nM [rising, full curve, poor fit]	
O=C(Cc1csc(-c2ccc(Cl)cc2)n1)Nc1cccc(S(=O)(=O)NC2=NCCC2)c1	15	18400 nM [rising, single point]	
Cc1ccc(NC(=O)CN(C)C(=O)c2ccc(OCc3c(C)noc3C)cc2)cc1		4110 nM [falling, single point]	
CCc1ccc(N=C2N=C(N)c3ccccc32)cc1	39.8	20600 nM [rising, partial curve]	5.17 nM [rising, full curve, poor fit]

Looked up above:
`CCOc1ccc(C2C(C#N)=C(N)Oc3cc(O)ccc32)cc1OCC` (configuration not stated) – cell number change [%]: -8.76
`CCN(CC)C(=O)c1[nH]cnc1C(=O)Nc1ccccc1` – cell number change [%]: -12.5
`Cc1ccc(NC(=O)CN(C)C(=O)c2ccc(OCc3c(C)noc3C)cc2)cc1` – AC50 [1]: 4110 nM [falling, single point]
